No constants are given. Whether binding was seen depends on the method and setting. Binding seen in cells or lysates may run through a third protein. Some results given as binding are weak or reduced against the parent protein; the word gives no strength.
Molecular target: Flag-tagged full-length SIRT1 (UniProt Q96EB6)
Test: co-IP; Flag-SIRT1 overexpressed in HEK293 cells (control: pECE empty vector); whole-cell lysate incubated with anti-Flag M2 agarose overnight at 4°C in NETN buffer (50 mM Tris-HCl pH 8.0, 100 mM NaCl, 1 mM EDTA, 0.5% NP40); endogenous ATP6V1B2 detected by western blot

By UniProt entry, the sequences of proteins in these tests, tags left out.
UniProt Q96EB6: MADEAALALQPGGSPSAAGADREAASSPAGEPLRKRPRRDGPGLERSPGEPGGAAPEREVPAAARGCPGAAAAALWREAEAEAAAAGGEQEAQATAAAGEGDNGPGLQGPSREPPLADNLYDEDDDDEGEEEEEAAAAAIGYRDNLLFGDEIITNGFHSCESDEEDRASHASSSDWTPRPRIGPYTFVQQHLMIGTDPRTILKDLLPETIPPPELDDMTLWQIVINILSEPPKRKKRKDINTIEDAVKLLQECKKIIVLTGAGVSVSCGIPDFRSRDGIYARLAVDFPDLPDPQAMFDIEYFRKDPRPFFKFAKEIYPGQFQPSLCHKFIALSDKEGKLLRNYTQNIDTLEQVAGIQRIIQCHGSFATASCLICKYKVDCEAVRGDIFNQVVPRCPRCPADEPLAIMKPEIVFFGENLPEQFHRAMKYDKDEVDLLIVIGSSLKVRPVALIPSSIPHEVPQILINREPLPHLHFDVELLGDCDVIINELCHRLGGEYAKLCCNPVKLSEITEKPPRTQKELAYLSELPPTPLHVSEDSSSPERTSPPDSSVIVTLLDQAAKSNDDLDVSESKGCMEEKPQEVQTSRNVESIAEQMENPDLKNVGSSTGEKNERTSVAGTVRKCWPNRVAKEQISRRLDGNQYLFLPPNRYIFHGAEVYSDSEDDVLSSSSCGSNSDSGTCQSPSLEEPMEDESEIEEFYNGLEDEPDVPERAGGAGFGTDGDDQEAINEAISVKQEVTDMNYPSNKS
UniProt P21281: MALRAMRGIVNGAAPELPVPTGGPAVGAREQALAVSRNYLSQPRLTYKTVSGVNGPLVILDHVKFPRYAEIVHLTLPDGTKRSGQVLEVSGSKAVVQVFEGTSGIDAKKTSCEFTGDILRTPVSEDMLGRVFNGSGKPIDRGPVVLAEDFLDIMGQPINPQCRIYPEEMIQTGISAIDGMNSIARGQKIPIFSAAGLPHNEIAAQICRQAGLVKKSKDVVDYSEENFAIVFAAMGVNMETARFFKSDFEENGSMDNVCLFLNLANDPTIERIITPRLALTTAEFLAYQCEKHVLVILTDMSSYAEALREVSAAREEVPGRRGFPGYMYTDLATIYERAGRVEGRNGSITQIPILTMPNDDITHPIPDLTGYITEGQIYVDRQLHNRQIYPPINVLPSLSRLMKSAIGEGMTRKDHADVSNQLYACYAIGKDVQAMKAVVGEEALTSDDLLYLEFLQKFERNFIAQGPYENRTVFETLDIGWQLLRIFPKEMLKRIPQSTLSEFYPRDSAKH

binding: binds
Substance: ATP6V1B2, B subunit of the vacuolar (H+)-ATPase (from UniProt P21281 1-511)
